According to article PMC8564539:
These are yes or no findings as the source states them, for the method shown. Binding seen in cells or lysates may run through a third protein. Some results given as binding are weak or reduced against the parent protein; the word gives no strength.

The chains behind the UniProt entries cited, without tags or fusion partners. Residues count along the entry.
UniProt Q9ULZ3, residues 107-195: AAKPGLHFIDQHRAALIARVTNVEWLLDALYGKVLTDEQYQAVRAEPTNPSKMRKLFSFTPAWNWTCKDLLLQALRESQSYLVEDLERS

Target: T1, NLRC4-CARD-AGIA (human) (UniProt Q9NPP4)
T1 sequence: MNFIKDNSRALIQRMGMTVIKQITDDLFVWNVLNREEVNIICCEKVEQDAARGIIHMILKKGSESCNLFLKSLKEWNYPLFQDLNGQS
Assay: co-IP; AGIA-tagged and FLAG-tagged domain co-expressed in HEK293T; NP-40 buffer lysate; anti-AGIA or anti-FLAG M2 antibody with protein A beads, 3 h, 4 °C; immunoblot with the other tag's antibody

## ASC-CARD-FLAG (from UniProt Q9ULZ3 107-195) (domain or fragment)
  binding: binds
